Construct, isoform or probe ends are uncertain for at least one entry. At least one verdict rests on a figure or table, not on a statement of the authors.
tested on: QTRT1 (catalytic subunit of TGT) + QTRT2 (accessory subunit of TGT); experiment: covalent intermediate gel shift; settings: none (unmodified transcript); recombinant protein; letters put together from the description

Chains of the proteins cited; added tags and fusions are not shown. A line that says so, or that is headed by a name, gives the form on record, which may keep a tag or linker.
QTRT1 (catalytic subunit of TGT) + QTRT2 (accessory subunit of TGT), one chain, as listed by the source, chain 1 of 2: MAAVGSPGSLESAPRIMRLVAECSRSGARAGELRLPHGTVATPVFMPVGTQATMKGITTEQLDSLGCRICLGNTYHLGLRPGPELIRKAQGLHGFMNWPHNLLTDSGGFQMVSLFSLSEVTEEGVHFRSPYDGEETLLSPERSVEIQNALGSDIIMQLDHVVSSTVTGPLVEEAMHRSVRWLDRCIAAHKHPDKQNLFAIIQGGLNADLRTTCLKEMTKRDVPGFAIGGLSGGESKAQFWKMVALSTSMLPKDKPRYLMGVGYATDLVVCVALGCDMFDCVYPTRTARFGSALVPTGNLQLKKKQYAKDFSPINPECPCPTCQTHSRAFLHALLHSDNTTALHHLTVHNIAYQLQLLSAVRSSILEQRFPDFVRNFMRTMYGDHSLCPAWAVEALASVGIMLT
QTRT1 (catalytic subunit of TGT) + QTRT2 (accessory subunit of TGT), one chain, as listed by the source, chain 2 of 2: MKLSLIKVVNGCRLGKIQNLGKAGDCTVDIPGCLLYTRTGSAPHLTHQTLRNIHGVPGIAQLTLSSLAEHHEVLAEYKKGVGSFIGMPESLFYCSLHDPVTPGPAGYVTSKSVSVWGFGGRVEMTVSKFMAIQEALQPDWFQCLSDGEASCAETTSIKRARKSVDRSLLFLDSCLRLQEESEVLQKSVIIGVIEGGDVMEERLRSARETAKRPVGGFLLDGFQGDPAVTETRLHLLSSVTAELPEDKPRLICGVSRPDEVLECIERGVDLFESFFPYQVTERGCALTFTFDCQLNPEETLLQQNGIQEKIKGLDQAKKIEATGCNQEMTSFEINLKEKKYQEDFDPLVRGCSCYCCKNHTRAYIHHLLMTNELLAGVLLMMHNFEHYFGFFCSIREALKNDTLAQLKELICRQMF

| Sequence | binding result |
| --- | --- |
| GGCCUUCGAUAGCUCAGUUGGUAGAGCGGAGGACUGUAGAUCCUUAGGUCGCUGGUUCGAAUCCGGCUCGAAGGA [m_tRNATyr (mature, GUA)] | binds |
| GGCCUUCGAUAGCUCAGUUGGUAGAGCGGAGGACUGUAGUCAGUACAAUAUGGUAAUCCUUAGGUCGCUGGUUCGAUUCCGGCUCGAAGGA [m_pre-tRNATyr 2-1 (intron-containing)] | binds |
| GGCCUUCGAUAGCUCAGUUGGUAGAGCGGAGGACUGUAGGUCAUUGUUCUAGAAAUCCUUAGGUCGCUGGUUCGAAUCCGGCUCGAAGGA [m_pre-tRNATyr 1-4 (intron-containing)] | binds |

Reference: paper PMC12313893
